Publication PMC3364193
No constants are given. Whether binding was seen depends on the method and setting. In cells and extracts the contact can be indirect. Some results given as binding are weak or reduced against the parent protein; the word gives no strength. Where a sequence is shown, tags or fusion partners need not be part of it.

Amino acid sequences for entries named in this document (tags omitted).
UniProt P62330: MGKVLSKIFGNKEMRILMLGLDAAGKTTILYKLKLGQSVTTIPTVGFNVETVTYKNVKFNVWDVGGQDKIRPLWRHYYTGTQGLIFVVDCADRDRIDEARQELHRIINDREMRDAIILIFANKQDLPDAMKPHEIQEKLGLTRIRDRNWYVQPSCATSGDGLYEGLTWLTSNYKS
UniProt P84077: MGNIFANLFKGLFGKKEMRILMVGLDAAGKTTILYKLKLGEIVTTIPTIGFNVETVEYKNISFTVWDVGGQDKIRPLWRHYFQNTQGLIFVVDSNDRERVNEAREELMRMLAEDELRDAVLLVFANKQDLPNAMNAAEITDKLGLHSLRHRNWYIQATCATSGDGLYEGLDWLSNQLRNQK

Key:
[1] = target: T1, GST-Golgi associated, gamma adaptin ear containing, ARF binding protein 3 (GGA3) protein binding domain (PBD; amino acids 1-316) (human) (UniProt Q9NZ52); test: pull-down; non-pregnant myometrium lysate incubated with 1 mM GDP for 30 min, then 2 h with GST-GGA3 PBD on glutathione resin; immunoblot with anti-ARF6; only the target purified
T1 sequence: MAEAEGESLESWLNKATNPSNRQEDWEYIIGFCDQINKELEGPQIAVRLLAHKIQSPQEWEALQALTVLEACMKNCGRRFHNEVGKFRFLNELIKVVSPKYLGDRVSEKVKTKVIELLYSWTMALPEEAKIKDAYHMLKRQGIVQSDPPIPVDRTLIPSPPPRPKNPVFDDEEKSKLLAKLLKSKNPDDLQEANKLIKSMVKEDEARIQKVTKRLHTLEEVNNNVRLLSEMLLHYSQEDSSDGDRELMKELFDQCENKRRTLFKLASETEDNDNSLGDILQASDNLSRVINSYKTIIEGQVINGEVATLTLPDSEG

[2] = target: T1, GST-Golgi associated, gamma adaptin ear containing, ARF binding protein 3 (GGA3) protein binding domain (PBD; amino acids 1-316) (human); test: pull-down; non-pregnant myometrium lysate incubated with 0.1 mM GTPγS for 30 min, then 2 h with GST-GGA3 PBD on glutathione resin; immunoblot with anti-ARF6; only the target purified
[3] = target: T1, GST-Golgi associated, gamma adaptin ear containing, ARF binding protein 3 (GGA3) protein binding domain (PBD; amino acids 1-316) (human); test: pull-down; untreated placental and myometrial tissue lysates (0.3 mg protein; NP, NIL, SL, PT-NIL, PT-SL) incubated 2 h at 4°C with 15 µl glutathione resin coupled to GST-GGA3 PBD (3 mg/ml of resin); washed in 50 mM Tris-HCl pH 7.5, 10 mM MgCl2, 150 mM NaCl, 1% Triton X-100; immunoblot with anti-ARF1 or anti-ARF6; only the target purified

Substance | binding [1] | binding [2] | binding [3]
ARF6 (ADP-ribosylation factor 6) (from UniProt P62330 1-175) | no binding (condition: lysate pre-treated with 1 mM GDP) | binds | binds
ARF1 (from UniProt P84077 1-181) |  |  | binds
